According to the supplement of paper PMC4604168 (melanoma cell lines):
Some of the results follow. Repeats are few or missing, and single values can be far off.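 Cells were imaged in 1,536-well plates, and nuclei stained with an antibody against cleaved PARP were counted against all DNA-stained nuclei to give the apoptosis fraction. Screening doses were chosen to leave most cells alive, and resting and induced cleaved-PARP levels differ strongly between cell lines.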

What was measured:
Experiment in all cases: cleaved PARP positive nuclei fraction relative to DMSO control; melanoma cells; higher = more apoptosis
Settings in all cases: library dose: low library concentration; 72 h
[1] = test system: 501Mel
[2] = test system: A101D
[3] = test system: A2058
[4] = test system: A375
[5] = test system: C32
[6] = test system: CBRC008 (line from a melanoma biopsy)
[7] = test system: CBRC013 (line from a melanoma biopsy)
[8] = test system: CBRC014 (line from a melanoma biopsy)
[9] = test system: CBRC016 (line from a melanoma biopsy)
[10] = test system: CBRC017 (line from a melanoma biopsy)
[11] = test system: COLO792
[12] = test system: COLO800
[13] = test system: COLO829
[14] = test system: G361
[15] = test system: IPC-298
[16] = test system: IST-MEL1
[17] = test system: LB2518-MEL
[18] = test system: LOXIMVI
[19] = test system: MEL-HO
[20] = test system: CBRC034 (line from a melanoma biopsy)

Compound | cleaved PARP positive nuclei fraction [1] [%] | cleaved PARP positive nuclei fraction [2] [%] | cleaved PARP positive nuclei fraction [3] [%] | cleaved PARP positive nuclei fraction [4] [%] | cleaved PARP positive nuclei fraction [5] [%] | cleaved PARP positive nuclei fraction [6] [%] | cleaved PARP positive nuclei fraction [7] [%] | cleaved PARP positive nuclei fraction [8] [%] | cleaved PARP positive nuclei fraction [9] [%] | cleaved PARP positive nuclei fraction [10] [%] | cleaved PARP positive nuclei fraction [11] [%] | cleaved PARP positive nuclei fraction [12] [%] | cleaved PARP positive nuclei fraction [13] [%] | cleaved PARP positive nuclei fraction [14] [%] | cleaved PARP positive nuclei fraction [15] [%] | cleaved PARP positive nuclei fraction [16] [%] | cleaved PARP positive nuclei fraction [17] [%] | cleaved PARP positive nuclei fraction [18] [%] | cleaved PARP positive nuclei fraction [19] [%] | cleaved PARP positive nuclei fraction [20] [%]
CN1CCN(c2ccc3nc(-c4c(N)c5c(F)cccc5[nH]c4=O)[nH]c3c2)CC1 [Dovitinib] + C[C@@H]1CCN(C(=O)CC#N)C[C@@H]1N(C)c1ncnc2[nH]ccc12 [CP690550] (first compound 0.1 µM, partner dose 1 µM) | 87.7 | 85.2 | 174 | 255 | 98.5 | 62.2 | 110 | 89.4 | 162 | 96.3 | 98.7 | 43.1 | 43.8 | 48.3 | 46.9 | 49 | 46.3 | 104 | 94.3 | 
O=C(O)c1ccc2c(c1)nc(Nc1cccc(Cl)c1)c1ccncc12 + Cn1c(Nc2ccc(C(F)(F)F)cc2)nc2cc(Oc3ccnc(-c4ncc(C(F)(F)F)[nH]4)c3)ccc21 [CHIR265] (first compound 0.4 µM, partner dose 0.08 µM) | 289 | 151 | 248 | 660 | 98.4 | 109 |  | 147 | 245 | 237 | 466 | 184 | 109 | 118 | 189 | 120 | 344 | 37.8 | 41.3 | 281
CS(=O)(=O)CCNCc1ccc(-c2ccc3ncnc(Nc4ccc(OCc5cccc(F)c5)c(Cl)c4)c3c2)o1 [lapatinib] + CC(=O)c1c(C)c2cnc(Nc3ccc(N4CCNCC4)cn3)nc2n(C2CCCC2)c1=O [palbociclib] (first compound 0.8 µM, partner dose 0.04 µM) | 122 | 144 | 109 | 203 | 98.4 | 38.5 |  | 104 | 104 | 120 | 135 | 66.9 | 75.1 | 66.6 | 58 | 148 | 65.4 | 48.1 | 169 | 35.8
CO[C@H]1C[C@@H]2CC[C@@H](C)[C@@](O)(O2)C(=O)C(=O)N2CCCC[C@H]2C(=O)O[C@H]([C@H](C)C[C@@H]2CC[C@@H](OCCO)[C@H](OC)C2)CC(=O)[C@H](C)/C=C(\C)[C@@H](O)[C@@H](OC)C(=O)[C@H](C)C[C@H](C)/C=C/C=C/C=C/1C [everolimus] + C#Cc1cccc(Nc2ncnc3cc(OCCOC)c(OCCOC)cc23)c1 [erlotinib] (first compound 0.02 µM, partner dose 0.8 µM) | 2180 | 57.8 | 77.3 | 843 | 84.2 | 312 |  | 106 | 68.6 | 117 | 50.5 | 64.3 | 108 | 147 | 126 | 116 | 35.3 | 101 | 97.4 | 48
